From patent US7910622B2, “Modulation of bacterial quorum sensing with synthetic ligands” (Wisconsin Alumni Research Foundation, priority 2007, dated 2011)
Not every entry of the source has a single result; some have several. They are shown here; other results are not. The source may hold further records. The records of an entry differ for a reason that is not stated; some may be repeats, others may stem from another dose, organism or construct than stated.

Chains of the proteins cited; added tags and fusions are not shown.
UniProt P35327, whole entry: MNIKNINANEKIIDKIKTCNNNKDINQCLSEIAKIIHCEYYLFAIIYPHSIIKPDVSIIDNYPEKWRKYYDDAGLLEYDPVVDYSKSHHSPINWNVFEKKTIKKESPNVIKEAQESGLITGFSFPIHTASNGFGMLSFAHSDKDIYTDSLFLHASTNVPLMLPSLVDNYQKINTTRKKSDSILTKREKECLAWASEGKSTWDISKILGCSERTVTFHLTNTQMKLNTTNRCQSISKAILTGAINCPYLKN

Target: LuxR (Aliivibrio fischeri, UniProt P35327)
Settings: LuxR

Structure (SMILES): O=C(Cc1cccc([N+](=O)[O-])c1)N[C@H]1CCOC1=O [11n, N-(3-nitro-phenylacetanoyl)-L-homoserine lactone]
- EC50 lower / activity higher relative to OHHL: ca. 10 fold and 10 fold
